# Test results from article PMC8748918.
# The chains behind the UniProt entries cited, without tags or fusion partners.
# UniProt P25103: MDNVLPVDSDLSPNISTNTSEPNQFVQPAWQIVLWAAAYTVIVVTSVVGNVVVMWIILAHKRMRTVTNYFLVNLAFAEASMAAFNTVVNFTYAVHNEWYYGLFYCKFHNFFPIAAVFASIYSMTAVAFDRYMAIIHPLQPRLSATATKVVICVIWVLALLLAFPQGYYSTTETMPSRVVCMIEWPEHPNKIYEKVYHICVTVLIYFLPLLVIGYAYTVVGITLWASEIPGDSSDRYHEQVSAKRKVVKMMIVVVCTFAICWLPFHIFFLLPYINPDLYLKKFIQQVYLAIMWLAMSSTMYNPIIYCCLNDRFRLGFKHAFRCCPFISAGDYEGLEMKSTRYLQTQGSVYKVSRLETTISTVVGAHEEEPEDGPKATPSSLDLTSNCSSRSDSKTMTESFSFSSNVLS
# These are yes or no findings as the source states them, for the method shown. Binding seen in cells or lysates may run through a third protein. Some results given as binding are weak or reduced against the parent protein; the word gives no strength.
# How the values were obtained:
# Assay in all cases: co-IP; RIPA lysate (80 ug protein) of NSCLC cells; IP with anti-EGFR (CST #2085), anti-NK1R (Abcam ab183713) or IgG at 4 °C overnight, protein A+G agarose beads 3 h at 4 °C, washed with PBS three times, immunoblot; cells untreated, treated with hHK-1 or aprepitant for 24 h, or overexpressing NK1R
# [1] = biological target: Neurokinin-1 receptor (human (endogenous in A549 and NCI-H1944)) (UniProt P25103)
# [2] = biological target: Neurokinin-1 receptor, overexpressed (UniProt P25103)
# [3] = biological target: EGFR/L858R/T790M (human (endogenous in NCI-H1975)) (UniProt P00533)
# [4] = biological target: Epidermal growth factor receptor (human (endogenous in A549 and NCI-H1944)) (UniProt P00533)
binding [1],binding [2],binding [3],binding [4],Substance
binds,binds,–,–,Epidermal growth factor receptor (from UniProt P00533 25-1210)
–,–,binds,binds,Neurokinin-1 receptor (from UniProt P25103 1-407)
